Results taken from PubChem BioAssay AID2551 (National Center for Advancing Translational Sciences (NCATS), 2010).
The whole screen tested about 310,000 compounds, of which about 17,000 (5.5%) were called active. This list was built around the results that the source calls inconclusive (neither active nor inactive); the mix of calls is not that of the screen. Calls follow the shape of the dose curve; as a rule, active = well fitted inhibition curve with a large enough effect; inconclusive = small, poorly fitted or top-dose-only effect, or effect the other way; inactive = no such curve, though single readings can be large or run the other way. A potency beside an inconclusive call is a rough fit, not a confirmed value.

Amino acid sequences for entries named in this document (tags omitted). A change or cut given only in a name is not applied to a line headed by its entry.
UniProt P51450: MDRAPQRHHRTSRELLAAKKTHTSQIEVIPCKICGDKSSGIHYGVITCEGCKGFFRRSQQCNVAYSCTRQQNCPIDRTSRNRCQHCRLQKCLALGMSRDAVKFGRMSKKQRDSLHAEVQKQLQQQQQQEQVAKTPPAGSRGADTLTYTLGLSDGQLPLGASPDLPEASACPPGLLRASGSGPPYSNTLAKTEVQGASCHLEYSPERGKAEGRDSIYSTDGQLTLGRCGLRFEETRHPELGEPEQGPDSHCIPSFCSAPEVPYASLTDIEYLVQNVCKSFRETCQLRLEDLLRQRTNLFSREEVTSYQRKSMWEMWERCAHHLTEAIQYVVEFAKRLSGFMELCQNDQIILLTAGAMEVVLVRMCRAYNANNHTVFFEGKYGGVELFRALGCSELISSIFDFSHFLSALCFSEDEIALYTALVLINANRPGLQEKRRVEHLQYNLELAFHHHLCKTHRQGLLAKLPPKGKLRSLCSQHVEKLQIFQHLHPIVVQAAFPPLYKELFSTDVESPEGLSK

The compounds below were run against Nuclear receptor ROR-gamma (Mus musculus) (UniProt P51450) (assay: qHTS for inhibitors of ROR gamma transcriptional activity). Conditions: Drosophila S2 Gal4-RORgamma UAS-luciferase reporter, 20 h; activity change, negative = inhibition: at 53.6 µM (top of the series).
Outline: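 Stable Schneider cell line, Gal4 DNA-binding domain fused to ROR gamma, UAS-luciferase. Cmpd 1 hr RT → CuSO4 700 uM final → 20 hr RT → luciferase reagent 10 min → luminescence.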
% is scaled to controls: 0 for no effect and ±100 for the full control effect; potency is read from the fitted curve at half-maximal effect.
Also: nearly all actives have a fitted effect of over 60% in size.

| SMILES | Potency | activity change, negative = inhibition |
| --- | --- | --- |
| S=C1NC(c2ccccc2)=NCN1c1ccc(Br)cc1 | active: 8.91 µM |  |
| COc1ccc(CN2CCc3ccccc3C2)cc1Br | inactive |  |
| O=C(NC(=S)Nc1ccccc1N1CCOCC1)c1ccco1 | active: 14.1 µM |  |
| CCCn1c(=O)c2ccccc2n2c(SCc3cc(=O)oc4ccc5ccccc5c34)nnc12 | inconclusive: 14.1 µM [inhibitor, single point] |  |
| Cc1ccc(S(=O)(=O)N2CCSC2C(=O)O)cc1 (configuration not stated) | inconclusive: 3.98 µM [inhibitor, single point] |  |
| O=C(COc1ccc(Cl)cc1)N1CCN(C(=O)c2cccs2)CC1 | active: 7.08 µM |  |
| COc1cccc(C(=O)CC(=O)C(=O)Nc2ccc(C)cc2Cl)c1 | inconclusive: 35.5 µM [inhibitor, single point] |  |
| O=C(ONc1ccc(N=NC(=O)c2ccccc2O)cc1)c1ccccc1 | active: 7.08 µM |  |
| Cc1ccsc1C1NC(=O)c2ccccc2N1 (configuration not stated) | inactive |  |
| CCOc1ccc(-c2nc(N)ncc2-c2ccccc2)c(O)c1 | inactive |  |
| COc1ccc(OC)c(NC(=O)CSc2ccc3ccccc3c2)c1 | inactive |  |
| COc1ccc(N(CC(=O)N2CCN(c3ccc(Cl)cc3)CC2)S(=O)(=O)c2c(C)n[nH]c2C)cc1 | inconclusive: 14.1 µM [activator, single point] |  |
| CCOC(=O)C1(CCOc2ccccc2)CCN(Cc2cc(OC)cc(OC)c2)CC1 | inconclusive: 31.6 µM [activator, single point] |  |
| COc1cccc(-n2c(-c3ccc4[nH]c(C)c(C)c4c3)n[nH]c2=S)c1 | inconclusive: 12.6 µM [inhibitor, partial curve] |  |
| CSc1nc2nc(C)c(C/C=C/c3ccccc3)c(=O)n2[nH]1 | inactive |  |
| O=c1c(-c2cccs2)nc2cnc(N3CCOCC3)nc2n1-c1ccccc1 | inactive |  |
| Cc1ccc(C(=O)NNC(=O)CCCCC(=O)NNC(=O)c2ccc(C)cc2)cc1 | inconclusive: 35.5 µM [inhibitor, single point] |  |
| CCCCOC(=O)Nc1ccc(C(N)=O)cc1 | inconclusive: 15.8 µM [activator, single point] |  |
| S=C(NCCCc1cnc[nH]1)NCCCN(Cc1ccc(Cl)c(Cl)c1)c1ccc(Br)cn1 | inconclusive: 12.6 µM [inhibitor, single point] |  |
| COC(=O)[C@@]1(C)C[C@@H]1[C@@H](NC(=O)[C@@]1(C)C[C@@H]1[C@@H](NC(=O)[C@@]1(C)C[C@@H]1[C@@H](NC(=O)[C@@]1(C)C[C@@H]1[C@@H](NC(=O)OCc1ccccc1)c1ccccc1)c1ccccc1)c1ccccc1)c1ccccc1 | inactive |  |
| CC1=C(C#N)CCC(=O)N1Cc1c(C)cc(C)cc1C | inconclusive: 11.2 µM [inhibitor, partial curve, poor fit] |  |
| Cc1cc(C(=O)COC(=O)c2ccc([N+](=O)[O-])o2)c(C)n1CC1CCCO1 (configuration not stated) | active: 20 µM |  |
| CC(=O)Nc1sc2c(c1C(N)=O)CCC2 | inconclusive: 15.8 µM [activator, single point] |  |
| O=C(Cc1ccc(Cl)cc1)N1CCOCC1 | inconclusive: 0.447 µM [inhibitor, single point] |  |

Reformatted with bars between the fields: part of the list above.
SMILES | Potency | activity change, negative = inhibition
Cc1ccsc1C1NC(=O)c2ccccc2N1 (configuration not stated) | inactive | 
CCCCOC(=O)Nc1ccc(C(N)=O)cc1 | inconclusive: 15.8 µM [activator, single point] | 
CC(=O)Nc1sc2c(c1C(N)=O)CCC2 | inconclusive: 15.8 µM [activator, single point] | 

Carrying on.

| SMILES | Potency | activity change, negative = inhibition |
| --- | --- | --- |
| CCN(CC)c1ccc(C(=O)NC(=S)N2CCN(Cc3ccc4c(c3)OCO4)CC2)cc1 | active: 6.31 µM |  |
| O=C(NC1CCCCCC1)c1ccco1 | inactive |  |
| O=C(NCc1cccc(CNC(=O)C(=O)NCc2ccco2)c1)C(=O)NCc1ccco1 | inconclusive: 14.1 µM [inhibitor, single point] |  |
| CCOCCn1c(-c2ccccc2)nc2ccccc21 | inconclusive: 10 µM [inhibitor, partial curve] |  |
| c1ccc(Cc2nn[nH]n2)cc1 | inconclusive: 35.5 µM [inhibitor, single point] |  |
| C(=N\Nc1nc2ccccc2s1)/c1cccs1 | active: 1.26 µM |  |
| CC1(C(=O)NCc2ccc(F)cc2)Oc2ccccc2NC1=O (configuration not stated) | inactive |  |
| CC(=O)c1c(C)[nH]c(C(=O)Nc2ccccn2)c1C | inconclusive: 11.2 µM [inhibitor, single point] |  |
| Cc1cccnc1CC(C)NC(=O)c1cc(COc2cncc(Cl)c2)on1 (configuration not stated) | inconclusive: 8.91 µM [activator, partial curve] |  |
| Cc1ccc(C)c(N(CC(=O)Nc2ccc(-c3nc4ccc(C)cc4s3)cc2)S(C)(=O)=O)c1 | inconclusive: 14.1 µM [activator, partial curve] |  |
| O=[N+]([O-])c1nn(-c2ccc3c(c2)OCCO3)n(O)c1=Nc1ccccc1 |  | inactive: 14.2% [at 10 µM] |
| Cc1cc2nc(-c3cccnc3SCC(=O)NCc3ccco3)[nH]c2cc1C | active: 11.2 µM |  |
| CCn1c(-c2c(Cl)c(C)nn2C)n[nH]c1=S | inconclusive: 20 µM [inhibitor, single point] |  |
| NC(=O)c1ccc(NC(=O)COC(=O)c2c3c(nc4ccccc24)/C(=C\c2ccc4c(c2)OCO4)CCC3)cc1 | inconclusive: 11.2 µM [activator, single point] |  |
| CCNC(=O)c1c(O)c2ccccc2[nH]c1=O | inactive |  |
| O=C(NNC(=O)c1ccc(-c2ccccc2)cc1)Nc1ccc(F)cc1F | inconclusive: 4.47 µM [activator, single point] |  |
| O=C1c2ccccc2C(=O)N1CN(C(=O)COc1ccc(Cl)cc1Cl)c1cccc(F)c1 | inactive |  |
| COC(=O)c1sc(N2C(=O)C(O)=C(C(=O)c3ccc(C)o3)C2c2ccc([N+](=O)[O-])cc2)nc1C (configuration not stated) | inconclusive: 4.47 µM [activator, partial curve, poor fit] |  |
| CC1CCN(C(=O)CCN2C(=O)/C(=C/c3cccs3)SC2=S)CC1 | inconclusive: 22.4 µM [inhibitor, single point] |  |
| CCOC(=O)c1ccc(-c2ccc(C(=O)Nc3cccnc3)o2)cc1 | inconclusive: 31.6 µM [inhibitor, single point] |  |
| Cc1csc(NC(=O)CCSCCc2ccccn2)n1 | inconclusive: 12.6 µM [activator, partial curve, poor fit] |  |
| Cc1sc(NC(=O)CN2CCN(c3ccccn3)CC2)c(C#N)c1C | inconclusive: 0.112 µM [inhibitor, single point] |  |
| NNc1nc2c(F)cc(F)cc2s1 | inconclusive: 35.5 µM [inhibitor, single point] |  |
| CCN(CC)CCn1c(NC(=O)c2ccccc2O)nc2ccccc21 | active: 2.51 µM |  |

| SMILES | Potency | activity change, negative = inhibition |
| --- | --- | --- |
| CCC1CCCCN1C(=O)c1cc2cc(Br)ccc2oc1=O (configuration not stated) | inconclusive: 35.5 µM [inhibitor, single point] |  |
| Cn1c(SCc2ccccc2Cl)nc2ccccc21 | inconclusive: 35.5 µM [inhibitor, single point] |  |
| CN(c1ccccc1)S(=O)(=O)c1cccc(NC(=O)CCN2C(=O)C3CCCCC3C2=O)c1 (configuration not stated) | inactive |  |
| CCCCc1c(C)nc2ccc(C)cc2c1SCCC(=O)O | inconclusive: 12.6 µM [activator, single point] |  |
| Cc1ccc(C(=O)NC(=S)N2CC(C)OC(C)C2)cc1[N+](=O)[O-] (configuration not stated) | active: 0.398 µM |  |
| CCN(Cc1ccncc1)C(=S)Nc1c(C)cccc1C | inconclusive: 22.4 µM [activator, single point] |  |
| Cc1c(C(=O)N(Cc2ccncc2)CC2CCCO2)oc2c(F)cccc12 (configuration not stated) | inconclusive: 11.2 µM [inhibitor, single point] |  |
| CCCCC(=O)Nc1ccc(NC(=O)c2ccc(C)c([N+](=O)[O-])c2)cc1OC | inconclusive: 7.08 µM [activator, full curve, poor fit] |  |
| CC(C)CNC(=S)N1CCC(c2nc(-c3ccc(F)cc3)no2)CC1 | inconclusive: 35.5 µM [inhibitor, single point] |  |
| O=C(CSC1=NCCS1)c1ccc(Cl)cc1 | inconclusive: 35.5 µM [inhibitor, single point] |  |
| Cc1ccc(NC(=S)NCc2ccc3c(c2)OCO3)cc1C | active: 12.6 µM |  |
| CN(C)CCNc1nc2sc3c(c2c(=O)n1Cc1ccccc1)CCCCC3 | inactive |  |
| CCn1c2c(c3cc(Cl)ccc31)CCCC2=O | inconclusive: 5.62 µM [inhibitor, single point] |  |
| Cc1nc(Oc2ccc(S(=O)(=O)N3CCOCC3)cc2Cl)c2c3c(sc2n1)CCCC3 | inactive |  |
| COc1ccc(/C=C(\C#N)C(=O)c2cccn2C)cc1 | inconclusive: 10 µM [activator, partial curve] |  |
| CSc1nc(N)nc(SCC(=O)C23CC4CC(CC(C4)C2)C3)c1C#N | inconclusive: 15.8 µM [activator, partial curve] |  |
| O=C(NC1CCCCC1)c1ccc(-c2ccccc2[N+](=O)[O-])o1 | inconclusive: 0.708 µM [activator, single point] |  |
| CCC(Cc1c(I)cc(I)c(N)c1I)C(=O)O (configuration not stated) | inactive |  |
| Cn1c(=O)cc(OCCCC(=O)Nc2cccnc2)c2ccccc21 | inconclusive: 35.5 µM [inhibitor, single point] |  |
| COC(=O)c1ccc(/C=N/NC(=S)NCCN2CCOCC2)cc1 | inconclusive: 25.1 µM [inhibitor, partial curve, poor fit] |  |
| CC(C)C[C@H](NC(=O)c1nc[nH]c1C(=O)N1CCN(c2ccccc2)CC1)C(=O)OC(C)(C)C | active: 12.6 µM |  |
| O=C(COC(=O)c1cc(-c2cccc(Br)c2)nc2ccccc12)NCC1CCCO1 (configuration not stated) | inactive |  |
| Cc1ccc(-n2c(Cc3ccccc3)nnc2SCC(=O)NNC(=O)Cc2ccccc2)cc1 | inactive |  |
| O=C(CCl)Nc1cc(SCC(O)CO)cc([N+](=O)[O-])c1 (configuration not stated) | inconclusive: 3.16 µM [inhibitor, full curve] |  |
